Data from patent US20100280085A1, “CHEMICAL COMPOUNDS” (SYNGENTA CROP PROTECTION, INC., priority 2006, published 2010).
Some results were stated once for a whole list of compounds, not compound by compound.

Columns and labels:
[1] = tested on: Tetranychus urticae (Two-spotted spider mite); experiment: Tetranychus urticae bean leaf disc spray test; type: in vivo; conditions: bean leaf discs sprayed at 200 ppm; mixed ages; after 8 days; egg, larval and adult mortality
[2] = tested on: Heliothis virescens (Tobacco budworm); experiment: Heliothis virescens egg/larval test on artificial diet in 24-well microtiter plate; type: in vivo; conditions: 200 ppm by pipetting on eggs (0-24 h old) on artificial diet; after 4 days; egg mortality, larval mortality, growth regulation

SMILES	control of Tetranychus urticae [1]	control of Heliothis virescens [2]
Cc1cccc2c1CCC2NC1=NCCO1 (stereo not drawn) [Compound 1.004]	at least 80%	at least 80%
Fc1cccc2c1CCC2NC1=NCCO1 (stereo not drawn) [Compound 1.016]	at least 80%	at least 80%
Fc1ccc2c(c1)CCC2NC1=NCCO1 (stereo not drawn) [Compound 1.005]	–	at least 80%
Cc1ccc2c(c1)C(NC1=NCCO1)CC2 (stereo not drawn) [Compound 1.012, (4,5-Dihydro-oxazol-2-yl)-(6-methyl-indan-1-yl)-amine]	–	at least 80%
